PubChem BioAssay AID1259254 – NCATS, 2017
Purpose: 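Finding genes that stop cells copying their DNA twice in one cycle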 (primary screen). Cells: human HCT116 colorectal cancer cells. Reagent: single siRNA against human genes. Timing: 3 days. Read-out: 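Nuclei stained with Hoechst and imaged; cell-cycle phase assigned by DNA content; G2 share scaled per plate, non-targeting siRNA 0%, GMNN siRNA 100%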. Scale: G2 robust z-score and G2 cells, % of GMNN control: higher = more G2 cells, more excess DNA replication; raw share of cells in G2: higher = larger share of cells with G2 DNA content. Rule for the call: 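Active siRNAs have a G2 robust z of 5 or more median absolute deviations over the median, which in these data means about 38% or higher of GMNN control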.
This is an unselected part of about 59,000 deposited reagents. In the full data, about 1,550 (2.6%) are marked active. 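G2 share is only a proxy for re-replication; each gene was hit by three separate siRNAs, and active genes were retested.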 Raw values vary from plate to plate and are shown uncorrected. A number with no mark means an inactive call. The numbers tell different reagents against one gene apart. Not stated in the record: the amount of reagent.

gene knocked down | reagent no. | G2 robust z-score | G2 cells, % of GMNN control | raw share of cells in G2 (%)
TYW3 | 1 | 0.784 | 8.49 | 7.37
TYW3 | 2 | -0.363 | 0.416 | 3.23
TYW3 | 3 | -0.845 | -2.97 | 1.5
SPINK6 | 1 | -0.0224 | 2.81 | 4.51
SPINK6 | 2 | -0.507 | -0.601 | 2.88
SPINK6 | 3 | 1.15 | 11.1 | 7.01
USP9X | 1 | 0.396 | 5.76 | 7.57
USP9X | 2 | 0.811 | 8.67 | 7.98
USP9X | 3 | -0.755 | -2.35 | 3.04
SPIN2B | 1 | 2.58 | 21.1 | 11.8
SPIN2B | 2 | 0.342 | 5.38 | 5.45
SPIN2B | 3 | 0.24 | 4.66 | 4.7
RPL28 | 1 | -0.676 | -1.79 | 4.21
RPL28 | 2 | 9.93 (active) | 72.8 | 33
RPL28 | 3 | 3.48 | 27.4 | 13.3
ERP27 | 1 | -0.578 | -1.1 | 3.65
ERP27 | 2 | 4.25 | 32.9 | 13.1
ERP27 | 3 | 0.264 | 4.82 | 3.23
MEI1 | 1 | 1.03 | 10.2 | 7.26
MEI1 | 2 | 0.479 | 6.34 | 4.87
MEI1 | 3 | 0.58 | 7.05 | 5.53
ADAD1 | 1 | 2.53 | 20.8 | 12.3
ADAD1 | 2 | -0.623 | -1.42 | 5.28
ADAD1 | 3 | -0.271 | 1.06 | 5.15
WAC | 1 | -1.25 | -5.8 | 1.53
WAC | 2 | -0.649 | -1.6 | 3.6
WAC | 3 | -1.04 | -4.35 | 1.76

A portion from the list above, for reference:
gene knocked down | reagent no. | G2 robust z-score | G2 cells, % of GMNN control | raw share of cells in G2 (%)
ERP27 | 1 | -0.578 | -1.1 | 3.65
ERP27 | 2 | 4.25 | 32.9 | 13.1
ERP27 | 3 | 0.264 | 4.82 | 3.23
MEI1 | 1 | 1.03 | 10.2 | 7.26
MEI1 | 2 | 0.479 | 6.34 | 4.87
MEI1 | 3 | 0.58 | 7.05 | 5.53
ADAD1 | 1 | 2.53 | 20.8 | 12.3

Further entries follow.
gene knocked down | reagent no. | G2 robust z-score | G2 cells, % of GMNN control | raw share of cells in G2 (%)
PDZD4 | 1 | -0.211 | 1.48 | 4.93
PDZD4 | 2 | -0.556 | -0.944 | 4.01
PDZD4 | 3 | -0.68 | -1.82 | 2.45
TBXT | 1 | -0.269 | 1.08 | 6.04
TBXT | 2 | -1.03 | -4.31 | 3.07
TBXT | 3 | 3.65 | 28.6 | 13.4
HSBP1 | 1 | 0.879 | 9.15 | 7.44
HSBP1 | 2 | 0.659 | 7.6 | 6.5
HSBP1 | 3 | -0.242 | 1.27 | 5.9
GSX2 | 1 | -0.129 | 2.06 | 5.46
GSX2 | 2 | 5.14 (active) | 39.1 | 21.1
GSX2 | 3 | -0.38 | 0.291 | 6.1
CES5AP1 | 1 | -0.82 | -2.81 | 2.1
CES5AP1 | 2 | 0.633 | 7.42 | 5.91
CES5AP1 | 3 | -0.2 | 1.56 | 3.24
WDHD1 | 1 | -0.0785 | 2.42 | 4.69
WDHD1 | 2 | -0.56 | -0.969 | 3.83
WDHD1 | 3 | 7.97 (active) | 59.1 | 30.1
MAP2 | 1 | 3.32 | 26.3 | 11.9
MAP2 | 2 | -0.0899 | 2.34 | 6.26
MAP2 | 3 | 0.359 | 5.49 | 7.65
GPR12 | 1 | -0.839 | -2.94 | 4.79
GPR12 | 2 | -1.01 | -4.14 | 3.07
GPR12 | 3 | 0.324 | 5.24 | 4.88
PPIL3 | 1 | 0.307 | 5.12 | 8.28
PPIL3 | 2 | 1.1 | 10.7 | 7.9
PPIL3 | 3 | -1.02 | -4.18 | 2.7
HOXB6 | 1 | -0.784 | -2.55 | 4.12
HOXB6 | 2 | 0.111 | 3.75 | 5.58
HOXB6 | 3 | -0.659 | -1.67 | 5.05
TASOR | 1 | 0.158 | 4.08 | 6.58
TASOR | 2 | -0.816 | -2.78 | 2.99
TASOR | 3 | 1.22 | 11.6 | 7.5
TLCD3B | 1 | 1.96 | 16.8 | 9.69
TLCD3B | 2 | 2.63 | 21.5 | 9.82
TLCD3B | 3 | -0.431 | -0.0659 | 2.39
MAPKAPK3 | 1 | 1.84 | 15.9 | 10.5
MAPKAPK3 | 2 | 3.5 | 27.6 | 15.2
MAPKAPK3 | 3 | -0.567 | -1.02 | 3.36
HACL2 | 1 | 0.908 | 9.35 | 6.87
HACL2 | 2 | 1.25 | 11.8 | 11.1
HACL2 | 3 | -0.745 | -2.28 | 4.71
